These are literature values, as cited in patent US7179842B2, “Method of treating non-insulin dependent diabetes mellitus with phytanic acid derivatives” (priority 2000, dated 2007).

The conditions of the series: endogenous level; cited from earlier work.

`C/C(=C\C(=O)O)CCC[C@H](C)CCC[C@H](C)CCCC(C)C` [Phytenic-, phytenic acid]: the “level in normal human serum” value was 2 µM.
Take `CC(C)CCCC(C)CCCC(C)CCCC(C)CC(=O)O` (centres unmarked) [phytanic acid]: the “level in normal human serum” value was 6 µM.
